From PubChem BioAssay AID1347423 (Functional Genomics Laboratory (NCATS/FGL), 2020)
The whole screen tested about 52,000 sequences, of which about 210 (0.4%) were called active.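 The calls were made as follows: active = gene whose silencing raises cell survival under the drug, median off-target-corrected z-score across its silencing RNAs 2 or more; inactive = the rest.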 The list shows a part of the results.

Assay: Resistance to Poly (ADP-Ribose) Polymerase inhibitor: Gene Identification via Genome-wide siRNA Screen
Settings: mouse BRCA2 R2336H ES cells, olaparib, CellTiter-Glo viability; stronger effect = higher value
Outline: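 Mouse BRCA2 R2336H ES cells were reverse-transfected with siRNA (20 nM final), treated at 48 h with 500 nM olaparib, and read by CellTiter-Glo after 72 h. Scores: MAD-based z per siRNA, median per gene, seed off-target correction.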

Row | Sequence | z-score
1 | CCAUCAUAUGAUCACGAAGTT against Cd83 | inactive: -0.879
2 | CCAUAUCUCUAAAUGUCAATT against Opa1 | inactive: 0.767
3 | GCAGCAAUUUCGGGUACUCTT against Tsta3 | inactive: 1.49
4 | GGGAGGUGCAAUCAGCUUUTT against Olfr1336 | inactive: 0.537
5 | GAGAGCCAUGCAAACUAAGTT against Il19 | inactive: -0.291
6 | CGAUGUGCAUUUUAAGUAGTT against Cdk2ap1 | inactive: 0.874
7 | GCAAAUACCGAACUCCCAGTT against Aqp12 | inactive: -0.992
8 | GGAGUUCUGUGAAAUCUUCTT against BC017634 | inactive: 0.0241
9 | GGGAAAGUCAUUCAUCAAGTT against Stc2 | inactive: 0.741
10 | GGAUCCUGAACGAAAAAGGTT against 2410018M14Rik | inactive: 0.213
11 | GGCUAUGGAGAAGCAGAUUTT against P140 | inactive: -2.44
12 | GGAAAAUAGUGGAAGCCUGTT against Apg3l | inactive: 0.063
13 | GGUGUUGGAAGAGAUGCUGTT against Ap3m2 | inactive: -1.83
14 | GGUUCCAUGAUAUCGGAACTT against Tbx15 | inactive: -0.352
15 | GGAGAUAAAGUCUUAUCACTT against 9130017N09Rik | inactive: 0.803
16 | GGUCGAAAGUUGUUUGUCATT against Arr3 | inactive: -1.42
17 | GGAAAAUGCUCACAUAGUGTT against Pak1ip1 | inactive: 0.932
18 | GGCCUGUUUGAACUCAUAGTT against Vrk3 | inactive: -0.443
19 | GCGAACACGAUUCAUUUAGTT against 2400003N08Rik | inactive: 0.51
20 | GCCAUGCUGACAAAGCUCATT against Hcn2 | inactive: -1.41
21 | GGGAAUGCAUAUUAUGCUATT against Dnajc7 | inactive: -0.873
22 | CCCUGCUUGAAUCUCUUCGTT against Tyk2 | inactive: 1
23 | GGCUGUAUGACUCAGCUCUTT against Olfr711 | inactive: -0.343
24 | GGACCAUGAGAAAUUUAAUTT against Nr2f1 | inactive: 0.529
25 | GGAUAUAGCUCAACACUUUTT against 4732482E20Rik | inactive: 0.404
26 | GGAUGUAUGUUAAGAUUGATT against Olfr906 | inactive: -0.339

Row | Sequence | z-score
27 | GGGAUGAGUACAAGAAAAATT against AU022521 | inactive: -0.515
28 | GGGAAAAGAAAGUACCUACTT against Zcchc10 | inactive: -1.05
29 | CCCGAUUAGGUGUUGAUAUTT against 1700034J06Rik | inactive: -1.02
30 | GGGAGUCCCAGCUUAGUAATT against Pou2f2 | inactive: -0.799
31 | GCAUAUACUUGAUUACCGUTT against Olfr830 | inactive: 0.261
32 | GGAGAACCAGAUCCUGAUCTT against P42pop | inactive: 0.717
33 | GCGAAGAAGAACCAUCGAUTT against Tmem10 | inactive: -0.625
34 | GCACCAAGAAUUAUAUACATT against Usp8 | inactive: 2.44
35 | GCAGAUAGCCCACGUCAUUTT against Nfkb2 | inactive: -0.309
36 | CGGGCUAUCUGGAACUAUATT against Sesn1 | inactive: 0.0688
37 | CCAUCCAGAUUUAAUAACCTT against Dcbld1 | inactive: 0.153
38 | GCUGACACAAAACGCAGUCTT against Kcna4 | inactive: -1.66
39 | GGCUGUUUGCCAAAAAAAATT against Ppp1r16a | inactive: 0.752
40 | GGCUGUCGUCAUUGAAGGATT against Ankrd27 | inactive: -0.611
41 | CCCUGAUGACAGAAGAAUCTT against Tyms | inactive: -0.811
42 | CGGCUGUGUGCAUUUAAAGTT against Bmpr2 | inactive: -0.00271
43 | CGGCGGAUCUAUGAAGUAGTT against Mrpl1 | inactive: -2.21
44 | GGUGUCCCAGAGUGUAUAATT against Olfr1499 | inactive: -2.67
45 | GGAGGUCUACCAUUUCACCTT against Cops4 | inactive: -0.436
46 | CCAUUGGAUUGGAACUGGATT against AW494914 | inactive: -0.555
47 | GGCCUACCAGAGAUUUAGATT against Ptgfr | inactive: -0.199
48 | GCUAAGUAACUCUUUUAGGTT against Clock | inactive: -0.834
49 | GGCACUUCACAGACUUAGUTT against Selp | inactive: 0.954
50 | GGUUCUGGCUGGAAUCUACTT against Gna-rs1 | inactive: 0.759
51 | GGUUUUCUCACCAUUAUUGTT against Asb13 | inactive: 1.77
52 | CGAGUUUGAGUACCUGAAATT against Akt1 | inactive: -1.54

Rewritten as comma-separated lines: entries from further up.
Row,Sequence,z-score
36,CGGGCUAUCUGGAACUAUATT against Sesn1,inactive: 0.0688
37,CCAUCCAGAUUUAAUAACCTT against Dcbld1,inactive: 0.153
